From publication PMC3043000
Results are given in words; binding and its absence hold for the method and conditions named. For some assays here: In cells and extracts the contact can be indirect. Some binding calls cover weakened binding; strength is not graded here.

Sequences of proteins named here, by UniProt entry; tags and fusion partners are left off.
UniProt Q9WTL8: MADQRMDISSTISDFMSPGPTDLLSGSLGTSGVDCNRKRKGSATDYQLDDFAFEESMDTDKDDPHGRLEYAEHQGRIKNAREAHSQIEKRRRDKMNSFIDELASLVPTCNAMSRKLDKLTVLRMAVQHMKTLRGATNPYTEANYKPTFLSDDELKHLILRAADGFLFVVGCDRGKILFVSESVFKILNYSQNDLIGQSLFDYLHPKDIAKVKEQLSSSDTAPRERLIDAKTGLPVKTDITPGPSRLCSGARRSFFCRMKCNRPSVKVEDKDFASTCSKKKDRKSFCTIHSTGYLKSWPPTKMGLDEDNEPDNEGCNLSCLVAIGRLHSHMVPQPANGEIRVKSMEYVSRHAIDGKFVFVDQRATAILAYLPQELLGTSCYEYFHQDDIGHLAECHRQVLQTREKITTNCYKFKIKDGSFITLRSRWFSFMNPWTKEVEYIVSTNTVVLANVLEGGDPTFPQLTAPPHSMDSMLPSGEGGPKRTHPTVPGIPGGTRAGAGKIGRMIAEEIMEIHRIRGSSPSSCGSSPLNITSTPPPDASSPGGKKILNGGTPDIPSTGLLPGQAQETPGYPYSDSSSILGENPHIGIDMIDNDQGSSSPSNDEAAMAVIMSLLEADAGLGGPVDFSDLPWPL

Experiments:
[1] = biological target: T1, CLOCK (mouse (endogenous in liver)) (UniProt O08785); assay: cross-linking + native gel or EMSA; two-dimensional EMSA: ZT2 liver nuclear extract with sp7 probe made with azido-dUTP, protein-DNA cross-linking, first dimension 4% acrylamide EMSA gel, second dimension resolves the DNA-bound proteins by mass
T1 sequence: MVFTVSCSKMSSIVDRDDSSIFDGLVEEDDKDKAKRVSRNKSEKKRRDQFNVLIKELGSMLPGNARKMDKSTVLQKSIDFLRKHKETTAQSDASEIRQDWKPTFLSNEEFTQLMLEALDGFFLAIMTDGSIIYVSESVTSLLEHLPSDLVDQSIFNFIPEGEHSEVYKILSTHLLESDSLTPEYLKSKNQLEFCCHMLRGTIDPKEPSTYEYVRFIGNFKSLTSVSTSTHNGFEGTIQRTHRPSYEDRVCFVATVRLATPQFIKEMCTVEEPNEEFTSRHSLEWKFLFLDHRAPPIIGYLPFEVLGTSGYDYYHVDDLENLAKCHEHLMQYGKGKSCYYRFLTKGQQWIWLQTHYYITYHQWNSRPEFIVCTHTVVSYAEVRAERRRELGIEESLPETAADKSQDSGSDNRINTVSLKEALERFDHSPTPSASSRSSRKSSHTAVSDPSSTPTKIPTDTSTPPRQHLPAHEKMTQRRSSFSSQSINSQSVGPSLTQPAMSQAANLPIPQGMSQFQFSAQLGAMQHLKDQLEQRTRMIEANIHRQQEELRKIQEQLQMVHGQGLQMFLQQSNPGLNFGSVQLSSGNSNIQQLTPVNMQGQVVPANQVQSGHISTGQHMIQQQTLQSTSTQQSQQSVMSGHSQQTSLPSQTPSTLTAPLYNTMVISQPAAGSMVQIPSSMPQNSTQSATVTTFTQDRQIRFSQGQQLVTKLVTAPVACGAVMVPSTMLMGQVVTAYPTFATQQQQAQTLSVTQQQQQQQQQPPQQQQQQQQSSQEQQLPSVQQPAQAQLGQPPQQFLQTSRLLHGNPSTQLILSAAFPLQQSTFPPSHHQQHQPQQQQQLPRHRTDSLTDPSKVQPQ

[2] = biological target: T1, CLOCK (mouse (endogenous in liver)); assay: native gel or EMSA; supershift EMSA: mouse liver nuclear extract (ZT2) with radiolabelled E1-E2 oligonucleotide probes; anti-BMAL1 or anti-CLOCK antibody added before the probe

binding [1]: binds
binding [2]: binds
Substance: BMAL1 (from UniProt Q9WTL8 1-632)
